Measurements taken from PMC10556103, “Autoantibody binding and unique enzyme-substrate intermediate conformation of human transglutaminase 3” (Nature Communications, 2023).
No constants are given. Whether binding was seen depends on the method and setting.

Key:
[1] = target: T1, Z-DON-associated TG3 without C1C2 (enzyme-substrate intermediate conformer) (human) (UniProt Q08188); assay: SEC; cathepsin L-cleaved TG3 incubated overnight at 4 °C with Z-DON (120:1) or without; Superdex 200 10/300, 50 mM Tris pH 7.6, 150 mM NaCl, 2 mM CaCl2; both purified
T1 sequence (chain, Cys273 alkylated by Z-DON (Z-DON-Val-Pro-Leu-OMe)): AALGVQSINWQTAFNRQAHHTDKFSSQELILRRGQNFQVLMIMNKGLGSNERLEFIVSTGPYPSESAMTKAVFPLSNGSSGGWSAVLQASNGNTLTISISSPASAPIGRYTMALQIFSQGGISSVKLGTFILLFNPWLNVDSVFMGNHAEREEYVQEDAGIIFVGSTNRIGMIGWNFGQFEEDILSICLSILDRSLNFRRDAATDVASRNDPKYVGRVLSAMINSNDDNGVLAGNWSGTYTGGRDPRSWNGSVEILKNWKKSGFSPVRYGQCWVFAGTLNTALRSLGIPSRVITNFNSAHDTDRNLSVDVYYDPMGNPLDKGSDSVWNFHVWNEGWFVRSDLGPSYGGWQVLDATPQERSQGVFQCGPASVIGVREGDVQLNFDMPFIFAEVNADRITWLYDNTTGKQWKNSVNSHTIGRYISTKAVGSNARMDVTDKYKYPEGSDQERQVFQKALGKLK

[2] = target: T1, Z-DON-associated TG3 without C1C2 (enzyme-substrate intermediate conformer) (human); assay: SEC; dispase-cleaved TG3 incubated overnight at room temperature with Z-DON (25:1) or without; Superdex 200 10/300, 20 mM Tris pH 8, 150 mM NaCl, 8 mM CaCl2, 1 mM EDTA, 1 mM DTT; fractions analysed by SDS-PAGE; both purified
[3] = target: T1, Z-DON-associated TG3 without C1C2 (enzyme-substrate intermediate conformer) (human); assay: crystal structure; TG3 form mixed with Fab DH63-B02 at 1:1.1 molar ratio, complex purified by SEC; crystals in 0.1 M HEPES-MOPS pH 7.1, 16-22% ethylene glycol, 8-11% PEG 8000, 6-10 mM CaCl2, 3-10 mM MgCl2; three Ca2+ bound; both purified

Measured: binding

C1C2 fragment (two C-terminal beta-barrel domains) of cleaved TG3 (from UniProt Q08188) (domain or fragment)
no binding: [1] | [2] | [3]
